Values joined by “and” are separate entries in the source; they are usually repeats but may differ in a detail not shown here. Identical values can stand only once. This list was built around the results that the source calls inconclusive (neither active nor inactive); the mix of calls is not that of the screen. Where the call is inconclusive, the potency comes from a doubtful curve fit. Active and inactive are the calls of the source. Calls come from the whole dose curve; as a rule, active = well fitted inhibition curve with a large enough effect; inconclusive = small, poorly fitted or top-dose-only effect, or effect the other way; inactive = no such curve, though single readings can be large or run the other way.
Biological target: Nuclear receptor ROR-alpha (Homo sapiens) (UniProt P35398)
Assay: ROR alpha selectivity assay for inhibitors of ROR gamma transcriptional activity
Settings: Drosophila S2 Gal4-RORalpha UAS-luciferase, 20 h; activity change, negative = inhibition: at 92.2 µM (top of the series)
From the text: NIH Molecular Libraries Probe Production Network [MLPCN] NIH Chemical Genomics Center [NCGC] MLPCN Grant: R03 DA026211-01 Assay Provider: Dan Littman, New York University Assay Overview: The retinoic acid-related orphan receptor (ROR) gamma is a transcription factor that has a central role in the differentiation of Th17 cells, a subset of T helper cells that secrete the inflammatory cytokines IL-17A, IL-17F, and IL-22. Th17 cells have been implicated in graft versus host disease, autoimmune disease and asthma. RORgamma is induced in naive T helper cells in the presence of TGF-beta combined with IL-6, IL-21, or IL-23, and thereafter directs the expression of the Th17 lineage cytokines. To identify nonselective inhibitors, a Drosophila Schneider cell line was stably transfected with two vectors: a gene expressing a fusion of the Gal4 DNA binding domain and the transactivation domain of the ROR alpha, under the control of the metallothionine promoter and a Photinus luciferase reporter regulated by the Gal4 binding site enhancer, UAS. […] Small molecule inhibitors that inhibit RORgamma and RORalpha, or components common to both, will be active in both assays and thus scored as nonselective.
Assay Protocol Summary: For screening, 600 cells in 4 uL/well were dispensed into white solid 1536-well plates (Grenier) using a solenoid-based dispenser. Following transfer of 23 nL compound or DMSO vehicle by a pin tool, the plates were incubated 1 hr at ambient temperature, and 1 uL/well copper sulfate (700 uM final concentration) was added. The plates were centrifuged 15 s at 1000 RPM and incubated 20 hr at ambient temperature. After addition of 1.5 uL Photinus luciferase detection reagent, the plates were incubated 10 min at ambient temperature and then read by an ViewLux (Perkin Elmer) to detect luminescence.

Question: Which Potency does the source give for `C[C@@H]1[C@H](C)CC[C@]2(C(=O)O)CC[C@]3(C)C(=CC[C@@H]4[C@@]5(C)CC[C@H](O)C(C)(C)[C@H]5CC[C@]43C)[C@@H]12` here?
Answer: Its Potency is active: 18.2 µM.

Question: Which Potency does the source give for `COc1cc(O)c(C(CC(=O)N2CCCCC2)c2ccc3c(c2)OCO3)c(OC)c1` (stereo not given) here?
Answer: Its Potency is “inactive”.

Question: For `CC1C2C3=CC[C@@H]4[C@@]5(C)CCC(O)C(C)(C)[C@@H]5CC[C@@]4(C)[C@]3(C)CC[C@@]2(C(=O)O)CC[C@H]1C` (stereo not given in full), which Potency is on record?
Answer: The Potency was inconclusive: 28.8 µM [inhibitor, partial curve, poor fit].

Question: With `CCOC(=O)c1sc(NC(=O)c2cc3c(s2)CCC(C)C3)nc1C` (stereo not given) as the compound, how does the Potency read?
Answer: The Potency was inconclusive: 0.162 µM [inhibitor, full curve, poor fit].

Question: `COc1cc(O)c(C(CC(=O)NCC2CCCCC2)c2ccc3c(c2)OCO3)c(OC)c1` (stereo not given) was tested. Which Potency did it give?
Answer: The Potency was “inactive”.

Question: Which Potency does the source give for `Cc1cccc(-c2nc3cc(NC(=O)C4CCCO4)ccc3o2)c1` (stereo not given) here?
Answer: Its Potency is inconclusive: 16.2 µM [inhibitor, full curve, poor fit].

Question: Which Potency does the source give for `CC1CCCN(C(=O)CC(c2ccc3c(c2)OCO3)c2ccc(F)cc2O)C1` (stereo not given) here?
Answer: The Potency was inconclusive: 28.8 µM [activator, partial curve, poor fit].

Question: With `COc1cc(O)c(C(CC(=O)N2CCCC(C)C2)c2ccccc2)c(OC)c1` (stereo not given) as the compound, how does the Potency read?
Answer: The Potency was “inactive”.

Question: Which Potency does the source give for `COCC1CCCN(C(=O)CC(c2ccc3c(c2)OCO3)c2c(O)cc(OC)cc2OC)C1` (stereo not given) here?
Answer: Its Potency is “inactive”.

Question: Which Potency does the source give for `COc1cc(O)c(C(CC(=O)N(Cc2ccccc2)Cc2ccccc2)c2ccc3c(c2)OCO3)c(OC)c1` (stereo not given) here?
Answer: Its Potency is inconclusive: 8.12 µM [activator, partial curve, poor fit].

Question: For `COc1cc(O)c(C(CC(=O)N2CCC(Cc3ccccc3)CC2)c2ccc(OC)c(OC)c2)c(OC)c1` (stereo not given), which activity change, negative = inhibition is on record?
Answer: Its activity change, negative = inhibition is inconclusive: 38.4% [activator].

Question: Which Potency does the source give for `COc1cc(O)c(C(CC(=O)N2CCCC(c3nc4ccccc4o3)C2)c2ccc3c(c2)OCO3)c(OC)c1` (stereo not given) here?
Answer: The Potency was inconclusive: 72.4 µM [activator, single point].

Question: `COc1ccc(C(CC(=O)N2CCCC(C)C2)c2c(O)cc(OC)cc2OC)cc1` (stereo not given) was tested. Which Potency did it give?
Answer: Its Potency is “inactive”.

Question: `COc1ccc(-c2nnc(-c3ccc(N(C)C)cc3)o2)cc1` was tested. Which Potency did it give?
Answer: Its Potency is inconclusive: 0.0011 µM [inhibitor].

Question: For `CCOC(=O)c1sc(NC(=O)c2ccc(S(=O)(=O)N(C)C)cc2)nc1C`, which Potency is on record?
Answer: Its Potency is inconclusive: 0.323 µM [inhibitor, full curve, poor fit].

Question: With `Cc1ccc(C(C)C)c(C(CC(=O)N2CCCC(C)C2)c2ccc3c(c2)OCO3)c1O` (stereo not given) as the compound, how does the Potency read?
Answer: The Potency was inconclusive: 72.4 µM [inhibitor, single point].

Question: Which Potency does the source give for `CCn1cc(C(=O)O)c(=O)c2cnc(N3CCN(C(=S)NC(=O)c4ccccc4)CC3)nc21` here?
Answer: The Potency was active: 22.9 µM.

Question: How did the Potency turn out when `COc1ccccc1CNC(=O)[C@@H](NC(=O)C1CCN(C(=O)[C@@H]2CCCN2C(=O)OC(C)(C)C)CC1)C(C)C` was run?
Answer: The Potency was inconclusive: 0.724 µM [activator, full curve, poor fit].

Question: Which Potency does the source give for `Cc1ccc(C)c(C(CC(=O)N2CCCC(C)C2)c2ccc3c(c2)OCO3)c1O` (stereo not given) here?
Answer: The Potency was inconclusive: 5.75 µM [activator, partial curve, poor fit].

Question: How did the activity change, negative = inhibition turn out when `CCOc1ccc(O)c(C(CC(=O)N2CCCC(C)C2)c2ccc3c(c2)OCO3)c1` (stereo not given) was run?
Answer: Its activity change, negative = inhibition is inconclusive: 44.5% [activator].

Question: How did the Potency turn out when `CC1CCCN(C(=O)CC(c2ccccc2)c2ccccc2O)C1` (stereo not given) was run?
Answer: Its Potency is “inactive”.

Question: How did the Potency turn out when `CC1CCCN(C(=O)CC(c2ccccc2)c2ccc(O)cc2)C1` (stereo not given) was run?
Answer: Its Potency is “inactive”.

Question: For `Cc1ccc(Sc2cncc3sc(C(N)=O)cc23)cc1`, which Potency is on record?
Answer: The Potency was inconclusive: 0.102 µM [inhibitor, full curve, poor fit].

Question: Which Potency does the source give for `COc1cc(O)c(C(CC(=O)N2CCCC(C)C2)c2ccc(C(C)C)cc2)c(OC)c1` (stereo not given) here?
Answer: The Potency was active: 36.3 µM.

Question: With `COc1cc(O)c(C(CC(=O)N2CC(C)NC(C)C2)c2ccc3c(c2)OCO3)c(OC)c1` (stereo not given) as the compound, how does the Potency read?
Answer: The Potency was “inactive”.

Question: `Cc1ccc(-c2cn(-c3ccccc3)c3[n+]2CCCS3)cc1` was tested. Which Potency did it give?
Answer: Its Potency is inconclusive: 14.4 µM [activator, partial curve, poor fit].

Question: Which Potency does the source give for `CCOC(=O)C1CCN(CC(=O)Nc2cc(C)nn2-c2nc3ccccc3s2)CC1` here?
Answer: The Potency was active: 20.4 µM.

Question: Which Potency does the source give for `c1ccc(Cn2c(-c3ccccc3)c[n+]3c2SCCC3)cc1` here?
Answer: Its Potency is inconclusive: 0.144 µM [activator, full curve, poor fit].

Question: How did the Potency turn out when `COc1cc(O)c(C(CC(=O)N[C@H](C)c2ccccc2)c2ccc3c(c2)OCO3)c(OC)c1` (stereo not given in full) was run?
Answer: The Potency was inconclusive: 20.4 µM [activator, partial curve, poor fit].

Question: Which Potency does the source give for `CCOc1cccc(-c2cc(-c3n[nH]c(=S)n3CC)c3ccccc3n2)c1` here?
Answer: Its Potency is active: 7.24 µM and active: 18.2 µM.

Question: How did the Potency turn out when `O=C(/C=C/c1ccc(S(=O)(=O)N2CCOCC2)cc1)NC(=S)Nc1ccc(N2CCOCC2)cc1` was run?
Answer: The Potency was active: 14.4 µM.

Question: `COc1ccccc1CNC(=O)[C@H](C)NC(=O)C1CCN(C(=O)[C@@H]2CCCN2C(=O)OC(C)(C)C)CC1` was tested. Which Potency did it give?
Answer: Its Potency is inconclusive: 0.0036 µM [activator, full curve, poor fit].

Question: `CC1CCCN(C(=O)CC(c2ccc3c(c2)OCO3)c2cc(C(C)C)ccc2O)C1` (stereo not given) was tested. Which Potency did it give?
Answer: Its Potency is “inactive”.

Question: Which Potency does the source give for `CN1CCN(C(=O)CCN2C(=O)/C(=C\c3ccccc3F)SC2=S)CC1` here?
Answer: Its Potency is inconclusive: 1.02 µM [activator, full curve, poor fit].

Question: With `CC(C)[C@H](NC(=O)C1CCN(C(=O)[C@@H]2CCCN2C(=O)OC(C)(C)C)CC1)C(=O)NCc1ccc(F)cc1` as the compound, how does the Potency read?
Answer: Its Potency is inconclusive: 0.0051 µM [activator, full curve, poor fit].

Question: How did the Potency turn out when `COc1ccc2nc(NNC(=O)COc3ccccc3)sc2c1` was run?
Answer: Its Potency is active: 6.45 µM.

Question: With `COc1cc(O)c(C(CC(=O)N2CCOCC2)c2ccc(C)cc2)c(OC)c1` (stereo not given) as the compound, how does the Potency read?
Answer: Its Potency is inconclusive: 2.57 µM [activator, full curve, poor fit].

Question: For `COc1cc(OC)c(C(CC(=O)N2CCCC(C)C2)c2ccc3c(c2)OCO3)c(OCc2ccccc2)c1` (stereo not given), which Potency is on record?
Answer: Its Potency is active: 20.4 µM.

Question: Which Potency does the source give for `CC1CCCN(C(=O)CC(c2ccc3c(c2)OCO3)c2ccc3ccccc3c2O)C1` (stereo not given) here?
Answer: Its Potency is inconclusive: 22.9 µM [activator, single point].

Question: How did the Potency turn out when `COc1cc(O)c(C(CC(=O)N2CC(C)CC(C)C2)c2ccc3c(c2)OCCO3)c(OC)c1` (stereo not given) was run?
Answer: The Potency was inconclusive: 4.57 µM [inhibitor, partial curve, poor fit].
